According to the supplement of paper PMC10849652:
Some of the results follow.

The chains behind the UniProt entries cited, without tags or fusion partners. Where a name states a change or a piece, a line headed by the entry shows the natural chain unless it says otherwise.
UniProt Q8WVC6: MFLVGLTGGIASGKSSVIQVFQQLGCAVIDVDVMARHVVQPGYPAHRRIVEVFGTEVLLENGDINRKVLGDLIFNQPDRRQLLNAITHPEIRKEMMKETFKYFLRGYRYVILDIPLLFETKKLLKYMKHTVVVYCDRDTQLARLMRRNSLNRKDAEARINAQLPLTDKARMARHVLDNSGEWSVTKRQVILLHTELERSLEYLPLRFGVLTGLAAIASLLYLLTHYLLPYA
UniProt Q9NV06: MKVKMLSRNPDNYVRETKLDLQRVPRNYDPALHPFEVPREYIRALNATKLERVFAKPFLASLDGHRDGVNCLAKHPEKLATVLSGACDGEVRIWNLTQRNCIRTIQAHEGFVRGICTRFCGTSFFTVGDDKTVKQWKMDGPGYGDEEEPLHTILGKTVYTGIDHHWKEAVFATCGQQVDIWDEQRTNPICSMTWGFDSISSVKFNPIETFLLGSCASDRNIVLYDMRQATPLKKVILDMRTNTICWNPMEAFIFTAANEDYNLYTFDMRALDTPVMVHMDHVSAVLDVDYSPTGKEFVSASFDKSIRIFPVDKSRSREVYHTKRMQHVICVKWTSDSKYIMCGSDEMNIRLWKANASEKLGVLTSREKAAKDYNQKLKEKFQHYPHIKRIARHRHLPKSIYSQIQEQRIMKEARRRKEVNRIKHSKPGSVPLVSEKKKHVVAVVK
UniProt P35221: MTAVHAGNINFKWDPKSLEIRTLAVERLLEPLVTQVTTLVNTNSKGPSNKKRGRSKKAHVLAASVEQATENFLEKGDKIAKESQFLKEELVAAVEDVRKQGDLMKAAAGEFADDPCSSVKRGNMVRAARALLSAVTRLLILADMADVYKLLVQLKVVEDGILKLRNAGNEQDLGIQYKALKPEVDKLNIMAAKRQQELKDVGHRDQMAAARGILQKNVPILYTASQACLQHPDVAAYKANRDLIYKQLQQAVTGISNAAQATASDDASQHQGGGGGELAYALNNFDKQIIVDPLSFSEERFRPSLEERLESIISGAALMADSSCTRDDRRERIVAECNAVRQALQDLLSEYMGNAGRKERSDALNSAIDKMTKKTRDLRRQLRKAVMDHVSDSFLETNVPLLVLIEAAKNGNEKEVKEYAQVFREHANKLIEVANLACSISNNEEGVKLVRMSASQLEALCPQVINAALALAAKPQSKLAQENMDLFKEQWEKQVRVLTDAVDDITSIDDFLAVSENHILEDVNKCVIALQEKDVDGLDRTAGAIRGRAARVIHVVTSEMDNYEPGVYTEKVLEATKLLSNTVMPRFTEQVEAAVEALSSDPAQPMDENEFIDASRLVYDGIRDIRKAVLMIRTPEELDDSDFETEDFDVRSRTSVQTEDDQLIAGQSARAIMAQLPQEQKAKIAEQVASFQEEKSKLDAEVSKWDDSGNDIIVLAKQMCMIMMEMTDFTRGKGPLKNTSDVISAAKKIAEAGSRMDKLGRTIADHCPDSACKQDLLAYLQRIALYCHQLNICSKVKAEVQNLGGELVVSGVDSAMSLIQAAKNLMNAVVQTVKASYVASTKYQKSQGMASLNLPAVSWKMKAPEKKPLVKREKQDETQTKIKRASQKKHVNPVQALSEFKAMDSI
UniProt P35222, whole entry, looked up: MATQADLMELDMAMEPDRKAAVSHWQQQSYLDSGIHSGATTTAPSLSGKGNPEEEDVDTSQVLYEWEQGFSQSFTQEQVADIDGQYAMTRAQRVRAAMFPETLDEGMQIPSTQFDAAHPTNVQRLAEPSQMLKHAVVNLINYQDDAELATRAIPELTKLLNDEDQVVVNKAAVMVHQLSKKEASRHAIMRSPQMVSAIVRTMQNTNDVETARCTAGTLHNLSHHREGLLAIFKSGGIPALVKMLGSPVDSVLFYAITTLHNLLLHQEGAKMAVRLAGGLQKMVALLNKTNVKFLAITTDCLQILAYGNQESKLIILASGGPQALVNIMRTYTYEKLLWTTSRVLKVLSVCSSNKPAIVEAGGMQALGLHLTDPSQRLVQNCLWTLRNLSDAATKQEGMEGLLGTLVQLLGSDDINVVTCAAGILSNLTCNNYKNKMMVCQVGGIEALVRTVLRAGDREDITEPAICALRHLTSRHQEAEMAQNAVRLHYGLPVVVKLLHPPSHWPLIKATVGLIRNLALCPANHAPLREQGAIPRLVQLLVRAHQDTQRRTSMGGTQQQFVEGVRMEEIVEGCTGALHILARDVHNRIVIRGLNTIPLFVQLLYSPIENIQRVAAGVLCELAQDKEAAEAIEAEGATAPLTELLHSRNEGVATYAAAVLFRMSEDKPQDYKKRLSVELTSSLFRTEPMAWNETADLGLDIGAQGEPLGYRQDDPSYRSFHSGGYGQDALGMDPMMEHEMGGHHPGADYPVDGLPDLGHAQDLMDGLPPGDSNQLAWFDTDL
UniProt P53634: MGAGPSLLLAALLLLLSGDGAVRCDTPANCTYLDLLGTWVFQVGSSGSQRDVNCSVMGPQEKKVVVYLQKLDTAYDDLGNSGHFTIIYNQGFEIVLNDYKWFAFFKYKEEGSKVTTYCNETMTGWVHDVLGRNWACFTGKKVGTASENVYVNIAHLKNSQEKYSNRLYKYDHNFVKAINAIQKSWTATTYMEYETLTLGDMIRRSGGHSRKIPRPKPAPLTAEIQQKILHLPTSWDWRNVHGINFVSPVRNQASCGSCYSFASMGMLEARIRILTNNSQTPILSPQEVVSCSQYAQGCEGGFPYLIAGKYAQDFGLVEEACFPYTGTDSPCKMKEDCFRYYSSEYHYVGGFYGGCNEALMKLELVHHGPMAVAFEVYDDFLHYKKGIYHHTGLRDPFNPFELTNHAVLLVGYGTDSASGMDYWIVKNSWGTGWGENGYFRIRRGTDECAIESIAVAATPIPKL
UniProt P01034: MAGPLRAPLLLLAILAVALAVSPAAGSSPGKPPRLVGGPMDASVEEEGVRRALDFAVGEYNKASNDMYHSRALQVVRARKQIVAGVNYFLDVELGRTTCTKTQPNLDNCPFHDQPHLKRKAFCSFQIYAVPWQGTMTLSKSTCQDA
UniProt Q8TB03: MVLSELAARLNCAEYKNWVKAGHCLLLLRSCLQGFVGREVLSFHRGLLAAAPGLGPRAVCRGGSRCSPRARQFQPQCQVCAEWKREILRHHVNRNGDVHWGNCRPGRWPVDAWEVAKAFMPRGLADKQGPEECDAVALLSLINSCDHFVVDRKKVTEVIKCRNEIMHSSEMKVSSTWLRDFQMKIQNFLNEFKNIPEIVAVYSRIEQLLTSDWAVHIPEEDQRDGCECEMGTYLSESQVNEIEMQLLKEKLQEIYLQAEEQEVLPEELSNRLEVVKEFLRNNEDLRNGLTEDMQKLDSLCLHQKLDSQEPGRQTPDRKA
UniProt Q13561, whole entry, looked up: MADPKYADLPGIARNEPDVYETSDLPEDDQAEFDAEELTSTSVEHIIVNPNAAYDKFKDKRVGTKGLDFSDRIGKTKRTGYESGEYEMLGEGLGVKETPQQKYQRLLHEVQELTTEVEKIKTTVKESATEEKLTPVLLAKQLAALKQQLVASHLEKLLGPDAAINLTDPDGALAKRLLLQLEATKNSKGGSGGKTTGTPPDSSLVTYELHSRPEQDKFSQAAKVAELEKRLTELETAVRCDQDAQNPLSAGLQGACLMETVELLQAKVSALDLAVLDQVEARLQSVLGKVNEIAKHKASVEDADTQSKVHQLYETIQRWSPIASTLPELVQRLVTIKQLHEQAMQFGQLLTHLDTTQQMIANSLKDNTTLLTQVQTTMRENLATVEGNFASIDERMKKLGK
UniProt Q5TAQ9: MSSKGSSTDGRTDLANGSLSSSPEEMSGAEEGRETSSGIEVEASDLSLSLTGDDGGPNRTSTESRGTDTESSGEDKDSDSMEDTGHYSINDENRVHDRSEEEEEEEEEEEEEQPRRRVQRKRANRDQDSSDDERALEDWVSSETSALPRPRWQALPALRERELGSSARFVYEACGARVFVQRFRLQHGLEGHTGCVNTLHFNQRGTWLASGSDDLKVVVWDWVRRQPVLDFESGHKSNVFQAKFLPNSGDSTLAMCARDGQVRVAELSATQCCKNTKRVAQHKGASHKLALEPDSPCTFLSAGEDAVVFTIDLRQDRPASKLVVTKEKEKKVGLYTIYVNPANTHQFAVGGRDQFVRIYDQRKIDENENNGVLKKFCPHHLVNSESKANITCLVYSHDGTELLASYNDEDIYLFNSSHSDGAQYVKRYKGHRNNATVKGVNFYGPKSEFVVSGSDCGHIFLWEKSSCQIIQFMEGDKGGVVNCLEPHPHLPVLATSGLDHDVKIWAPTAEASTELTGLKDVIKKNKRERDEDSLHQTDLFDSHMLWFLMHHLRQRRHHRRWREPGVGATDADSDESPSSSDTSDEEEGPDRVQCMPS
UniProt P11182, whole entry, looked up: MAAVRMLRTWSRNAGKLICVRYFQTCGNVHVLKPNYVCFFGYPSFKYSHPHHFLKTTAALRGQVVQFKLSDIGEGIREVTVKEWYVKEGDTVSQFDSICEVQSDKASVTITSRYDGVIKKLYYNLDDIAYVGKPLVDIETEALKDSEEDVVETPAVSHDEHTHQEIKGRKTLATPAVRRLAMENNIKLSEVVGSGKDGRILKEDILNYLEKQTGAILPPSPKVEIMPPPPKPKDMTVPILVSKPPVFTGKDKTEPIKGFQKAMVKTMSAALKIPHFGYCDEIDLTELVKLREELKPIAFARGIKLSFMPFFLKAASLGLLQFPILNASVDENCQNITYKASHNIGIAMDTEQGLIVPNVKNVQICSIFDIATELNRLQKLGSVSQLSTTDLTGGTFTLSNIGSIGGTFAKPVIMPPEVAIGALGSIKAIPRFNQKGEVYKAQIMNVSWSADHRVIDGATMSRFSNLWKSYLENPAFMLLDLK
UniProt Q13617, whole entry, looked up: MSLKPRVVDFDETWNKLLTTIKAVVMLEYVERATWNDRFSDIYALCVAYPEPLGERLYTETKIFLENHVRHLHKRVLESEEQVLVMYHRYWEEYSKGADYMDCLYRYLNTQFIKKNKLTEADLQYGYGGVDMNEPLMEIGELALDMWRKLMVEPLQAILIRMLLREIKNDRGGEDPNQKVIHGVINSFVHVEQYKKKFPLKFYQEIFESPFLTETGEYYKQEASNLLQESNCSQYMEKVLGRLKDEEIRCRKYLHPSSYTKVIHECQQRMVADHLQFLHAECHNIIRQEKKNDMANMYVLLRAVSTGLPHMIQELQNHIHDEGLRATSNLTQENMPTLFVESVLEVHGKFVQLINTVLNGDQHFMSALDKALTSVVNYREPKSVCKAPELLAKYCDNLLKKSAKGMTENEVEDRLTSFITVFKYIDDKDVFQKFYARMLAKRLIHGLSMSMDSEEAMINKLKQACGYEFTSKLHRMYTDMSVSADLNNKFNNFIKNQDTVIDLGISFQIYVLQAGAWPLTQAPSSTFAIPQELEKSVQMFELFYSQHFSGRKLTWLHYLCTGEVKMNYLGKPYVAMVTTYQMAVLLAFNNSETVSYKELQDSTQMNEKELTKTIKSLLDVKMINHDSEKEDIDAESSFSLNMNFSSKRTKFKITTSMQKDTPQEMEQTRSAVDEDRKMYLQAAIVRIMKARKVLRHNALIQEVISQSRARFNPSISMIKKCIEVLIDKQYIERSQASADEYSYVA
UniProt Q16643: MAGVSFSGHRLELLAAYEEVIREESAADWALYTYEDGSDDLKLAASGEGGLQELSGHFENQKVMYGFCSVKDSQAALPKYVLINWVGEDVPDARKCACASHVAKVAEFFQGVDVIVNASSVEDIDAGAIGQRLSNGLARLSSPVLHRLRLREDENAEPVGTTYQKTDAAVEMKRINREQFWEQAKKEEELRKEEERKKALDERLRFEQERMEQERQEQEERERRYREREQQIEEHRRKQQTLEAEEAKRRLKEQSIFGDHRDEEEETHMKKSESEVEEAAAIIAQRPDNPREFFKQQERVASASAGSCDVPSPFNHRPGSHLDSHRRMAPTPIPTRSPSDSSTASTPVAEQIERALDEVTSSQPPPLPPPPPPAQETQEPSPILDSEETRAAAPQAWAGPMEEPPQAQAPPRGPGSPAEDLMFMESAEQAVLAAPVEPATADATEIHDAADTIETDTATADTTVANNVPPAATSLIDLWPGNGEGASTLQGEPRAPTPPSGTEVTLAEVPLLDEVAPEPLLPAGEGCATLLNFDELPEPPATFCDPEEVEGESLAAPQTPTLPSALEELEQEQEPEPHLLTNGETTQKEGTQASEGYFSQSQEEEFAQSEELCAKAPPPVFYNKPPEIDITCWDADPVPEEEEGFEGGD

Experiments:
Test in all cases: log2 fold change, soluble protein after heating vs DMSO (PISA); higher = thermal stabilisation; K562 cells, 10 uM, 30 min; active = over 0.2 and 3.5 SD of the protein, either way, in both replicates (recomputed)
bafetinib = compound: Cc1ccc(NC(=O)c2ccc(CN3CC[C@H](N(C)C)C3)c(C(F)(F)F)c2)cc1Nc1nccc(-c2cncnc2)n1 [bafetinib]
Procedure, shortened: (§1)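 Soluble protein was quantified by TMTpro 16plex LC-MS/MS after channel sums were equalised. It was obtained as the supernatant after 21,000xg for 90 min from pooled aliquots of K562 cells (2×10^6 cells/mL, 10 μM compound, 30 min) heated for 3 min across 48°C-58°C and extracted in PBS with 0.5% NP-40 at 4°C. Thermal stability values are relative to control samples and come from duplicates. They are given as log2 fold changes.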

[1] = compound: Cc1cccc(CC(=O)N2CCc3c2ccc(-c2cn(C)c4ncnc(N)c24)c3F)n1
Procedure, shortened: as §1

nilotinib = compound: Cc1cn(-c2cc(NC(=O)c3ccc(C)c(Nc4nccc(-c5cccnc5)n4)c3)cc(C(F)(F)F)c2)cn1 [nilotinib]
Procedure, shortened: as §1

[2] = compound: Cc1nc(Nc2n[nH]c3c2CN(C(=O)N[C@H](CN(C)C)c2ccccc2)C3(C)C)c2sccc2n1
Procedure, shortened: as §1

dasatinib = compound: Cc1nc(Nc2ncc(C(=O)Nc3c(C)cccc3Cl)s2)cc(N2CCN(CCO)CC2)n1 [dasatinib]
Procedure, shortened: as §1

[3] = compound: Cc1ncc(-c2ccnc(Nc3ccc(S(C)(=O)=O)cc3)n2)n1C(C)C
Procedure, shortened: as §1

[4] = compound: Cn1cc(-c2ccc3c(c2)CCN3C(=O)Cc2cccc(C(F)(F)F)c2)c2c(N)ncnc21
Procedure, shortened: as §1

[5] = compound: Cn1cc(-c2ccc3nnc(C(F)(F)c4ccc5ncccc5c4)n3n2)cn1
Procedure, shortened: as §1

tipifarnib = compound: Cn1cncc1[C@@](N)(c1ccc(Cl)cc1)c1ccc2c(c1)c(-c1cccc(Cl)c1)cc(=O)n2C [tipifarnib]
Procedure, shortened: as §1

mubritinib = compound: FC(F)(F)c1ccc(/C=C/c2nc(COc3ccc(CCCCn4ccnn4)cc3)co2)cc1 [mubritinib]
Procedure, shortened: as §1

[6] = compound: NC(=O)Nc1cc(-c2cccc(F)c2)sc1C(=O)N[C@H]1CCCNC1
Procedure, shortened: as §1

[7] = compound: NC(=O)c1cnc(N[C@@H]2CCCC[C@@H]2N)nc1Nc1cccc(-n2nccn2)c1
Procedure, shortened: as §1

[8] = compound: NC1(c2ccc(-c3nc4ccn5c(=O)[nH]nc5c4cc3-c3ccccc3)cc2)CCC1
Procedure, shortened: as §1

[9] = compound: NCC(=O)Nc1ccc(-n2nc(C(F)(F)F)cc2-c2ccc3c(ccc4ccccc43)c2)cc1
Procedure, shortened: as §1

entinostat = compound: Nc1ccccc1NC(=O)c1ccc(CNC(=O)OCc2cccnc2)cc1 [entinostat]
Procedure, shortened: as §1

vorinostat = compound: O=C(CCCCCCC(=O)Nc1ccccc1)NO [vorinostat]
Procedure, shortened: as §1

citarinostat = compound: O=C(CCCCCCNC(=O)c1cnc(N(c2ccccc2)c2ccccc2Cl)nc1)NO [citarinostat]
Procedure, shortened: as §1

silmitasertib = compound: O=C(O)c1ccc2c(c1)nc(Nc1cccc(Cl)c1)c1ccncc12 [silmitasertib]
Procedure, shortened: as §1

[10] = compound: O=C1NC(=O)C(c2cnc3ccccn23)=C1c1cn2c3c(cc(F)cc13)CN(C(=O)N1CCCCC1)CC2
Procedure, shortened: as §1

[11] = compound: c1cc(OCCN2CCCCC2)cc(-c2n[nH]c3ccc(-c4nnc[nH]4)cc23)c1
Procedure, shortened: as §1

Measured: log2 fold change

DCAKD (UniProt Q8WVC6)
inactive: bafetinib -0.165 | [1] -0.008 | nilotinib -0.11 | [2] -0.075 | dasatinib -0.024 | [3] 0.107 | [4] 0.012 | [5] 0.02 | tipifarnib 0.029 | mubritinib -0.053 | [6] -0.043 | [7] -0.059 | [8] -0.078 | [9] 0.026 | entinostat -0.051 | vorinostat 0.009 | citarinostat 0.003 | silmitasertib -0.009 | [10] -0.045 | [11] -0.081

DCAF13 (UniProt Q9NV06)
inactive: bafetinib 0.178 | [1] 0 | nilotinib 0.006 | [2] 0.102 | dasatinib 0.077 | [3] -0.05 | [4] -0.249 | [5] -0.173 | tipifarnib 0.193 | mubritinib -0.106 | [6] -0.004 | [7] 0.049 | [8] 0.196 | [9] 0.077 | entinostat -0.058 | vorinostat 0.004 | citarinostat -0.044 | silmitasertib 0.108 | [10] 0.054 | [11] -0.077

CTNNA1 isoform 2 (UniProt P35221)
inactive: bafetinib -0.038 | [1] -0.021 | nilotinib -0.061 | [2] -0.01 | dasatinib -0.026 | [3] -0.024 | [4] 0.046 | [5] -0.042 | tipifarnib 0.019 | mubritinib 0.022 | [6] -0.021 | [7] -0.014 | [8] -0.052 | [9] 0.008 | entinostat 0.03 | vorinostat 0 | citarinostat 0.028 | silmitasertib 0.044 | [10] -0.041 | [11] -0.049

CTNNB1 (UniProt P35222)
inactive: bafetinib 0.026 | [1] 0.057 | nilotinib -0.056 | [2] 0.205 | dasatinib -0.149 | [4] -0.004 | [5] -0.021 | tipifarnib -0.115 | mubritinib 0.076 | [6] -0.14 | [7] -0.06 | [8] -0.18 | [9] -0.2 | entinostat -0.078 | vorinostat -0.001 | citarinostat 0.093 | silmitasertib 0.03 | [11] -0.107
active: [3] 0.858 | [10] 1.3

CTSC (UniProt P53634)
inactive: [1] -0.004 | nilotinib -0.008 | [2] 0 | dasatinib 0.046 | [3] -0.033 | [4] 0.041 | [5] 0.004 | tipifarnib -0.039 | mubritinib 0.056 | [6] 0.019 | [7] -0.015 | [8] -0.11 | [9] 0.086 | entinostat -0.053 | vorinostat -0.016 | citarinostat 0.015 | silmitasertib -0.053 | [10] -0.057 | [11] 0.063
active: bafetinib -0.452

CTBP2 isoform 2 (UniProt P56545)
inactive: bafetinib -0.011 | [1] -0.032 | nilotinib -0.028 | [2] 0.007 | dasatinib 0.023 | [3] -0.029 | [4] 0.054 | [5] 0.012 | tipifarnib 0.062 | mubritinib 0.032 | [6] -0.005 | [7] -0.027 | [8] -0.04 | [9] -0.072 | entinostat -0.015 | vorinostat 0.007 | citarinostat 0.02 | silmitasertib -0.035 | [10] -0.016 | [11] 0.1

CST3 (UniProt P01034)
inactive: bafetinib 0.034 | [1] -0.04 | nilotinib 0.142 | [2] -0.001 | dasatinib 0.148 | [3] 0.014 | [4] 0.007 | [5] -0.091 | tipifarnib 0.077 | mubritinib -0.037 | [6] -0.137 | [7] 0.079 | [8] 0.133 | [9] -0.017 | entinostat -0.077 | vorinostat -0.134 | citarinostat -0.001 | silmitasertib 0.074 | [10] -0.015 | [11] -0.015

CXorf38 (UniProt Q8TB03)
inactive: bafetinib -0.044 | [1] -0.014 | nilotinib -0.041 | [2] -0.041 | dasatinib 0.011 | [3] -0.075 | [4] 0.075 | [5] 0.053 | tipifarnib 0.063 | mubritinib 0.043 | [6] -0.066 | [7] -0.024 | [8] -0.078 | [9] -0.011 | entinostat -0.034 | vorinostat 0.046 | citarinostat 0.095 | silmitasertib -0.01 | [10] -0.007 | [11] -0.021

DCTN2 isoform 2 (UniProt Q13561)
inactive: bafetinib 0.017 | [1] -0.007 | nilotinib -0.012 | [2] -0.026 | dasatinib -0.089 | [3] 0.026 | [4] -0.012 | [5] 0.003 | tipifarnib -0.066 | mubritinib 0.018 | [6] -0.011 | [7] -0.023 | [8] -0.047 | [9] -0.011 | entinostat 0.06 | vorinostat -0.018 | citarinostat 0.043 | silmitasertib 0.031 | [10] -0.011 | [11] -0.028

CTBP1 (UniProt Q13363)
inactive: bafetinib -0.019 | [1] 0.004 | nilotinib -0.005 | [2] 0.002 | dasatinib 0.002 | [3] -0.031 | [4] 0.004 | [5] 0.057 | tipifarnib -0.036 | mubritinib 0.044 | [6] -0.045 | [7] 0.005 | [8] -0.026 | [9] 0.041 | entinostat -0.023 | vorinostat 0.042 | citarinostat 0.037 | silmitasertib -0.031 | [10] -0.037 | [11] -0.05

CTSB (UniProt P07858)
active: bafetinib -0.842 | [8] -0.283
inactive: [1] -0.038 | nilotinib 0.001 | [2] -0.028 | dasatinib -0.008 | [3] -0.029 | [4] 0.014 | [5] 0.033 | tipifarnib 0.008 | mubritinib -0.007 | [6] -0.013 | [7] -0.043 | [9] 0.005 | entinostat -0.047 | vorinostat 0.016 | citarinostat -0.015 | silmitasertib 0.002 | [10] -0.067 | [11] -0.07

DCAF8 (UniProt Q5TAQ9)
inactive: bafetinib -0.072 | [1] -0.023 | nilotinib -0.045 | [2] 0.051 | dasatinib -0.023 | [3] -0.076 | [4] 0.057 | [5] -0.03 | tipifarnib -0.052 | mubritinib 0.002 | [6] -0.092 | [7] -0.078 | [8] -0.013 | [9] -0.048 | entinostat 0.034 | vorinostat -0.054 | citarinostat 0.018 | silmitasertib 0.023 | [10] -0.069 | [11] -0.029

DBT (UniProt P11182)
inactive: bafetinib 0.02 | [1] -0.037 | nilotinib 0.036 | [2] -0.014 | dasatinib -0.002 | [3] -0.033 | [4] -0.026 | [5] -0.03 | tipifarnib 0.011 | [6] -0.009 | [7] 0.003 | [8] 0.005 | [9] -0.021 | entinostat -0.042 | vorinostat 0.006 | citarinostat -0.011 | silmitasertib 0.027 | [10] 0.022 | [11] -0.093
active: mubritinib -0.207

CUL2 isoform 2 (UniProt Q13617)
inactive: bafetinib -0.035 | [1] 0.042 | nilotinib -0.034 | [2] -0.003 | dasatinib -0.084 | [3] -0.003 | [4] 0.053 | [5] -0.009 | tipifarnib -0.069 | mubritinib 0.006 | [6] 0.017 | [7] -0.013 | [8] -0.076 | [9] -0.001 | entinostat 0.01 | vorinostat 0.022 | citarinostat 0.032 | silmitasertib 0.022 | [10] -0.023 | [11] -0.007

Reprinted at random: 2 records from the list.
CTSB (UniProt P07858)
active: bafetinib -0.842 | [8] -0.283
inactive: [1] -0.038 | nilotinib 0.001 | [2] -0.028 | dasatinib -0.008 | [3] -0.029 | [4] 0.014 | [5] 0.033 | tipifarnib 0.008 | mubritinib -0.007 | [6] -0.013 | [7] -0.043 | [9] 0.005 | entinostat -0.047 | vorinostat 0.016 | citarinostat -0.015 | silmitasertib 0.002 | [10] -0.067 | [11] -0.07

CUL2 isoform 2 (UniProt Q13617)
inactive: bafetinib -0.035 | [1] 0.042 | nilotinib -0.034 | [2] -0.003 | dasatinib -0.084 | [3] -0.003 | [4] 0.053 | [5] -0.009 | tipifarnib -0.069 | mubritinib 0.006 | [6] 0.017 | [7] -0.013 | [8] -0.076 | [9] -0.001 | entinostat 0.01 | vorinostat 0.022 | citarinostat 0.032 | silmitasertib 0.022 | [10] -0.023 | [11] -0.007

(list continues)

DBN1 isoform 3 (UniProt Q16643)
active: dasatinib 0.264
inactive: bafetinib -0.106 | [1] 0.032 | nilotinib -0.05 | [2] -0.043 | [3] -0.041 | [4] -0.22 | [5] -0.069 | tipifarnib 0.086 | mubritinib 0 | [6] 0.098 | [7] 0.027 | [8] -0.039 | [9] -0.003 | entinostat -0.036 | vorinostat 0.128 | citarinostat -0.032 | silmitasertib 0.066 | [10] -0.03 | [11] -0.053

CSTF3 (UniProt Q12996)
inactive: bafetinib -0.004 | [1] 0.044 | nilotinib -0.044 | [2] 0.176 | dasatinib -0.021 | [3] 0.158 | [4] -0.009 | [5] -0.01 | tipifarnib 0.009 | mubritinib 0.019 | [6] 0.011 | [7] -0.027 | [8] -0.046 | [9] -0.032 | entinostat -0.032 | vorinostat -0.032 | citarinostat -0.021 | silmitasertib 0.029 | [10] 0.027 | [11] 0.012
